Results taken from paper PMC7817014.
Results are given in words; binding and its absence hold for the method and conditions named. In cells and extracts the contact can be indirect. Where a sequence is shown, tags or fusion partners need not be part of it.

Target: MYC epitope-tagged CCDC114 (mouse)
Assay: co-IP; HEK293T cells co-transfected for 24 h, lysed in RIPA buffer; immunoprecipitation with mouse monoclonal antibodies to HA, MYC or GFP and protein A-agarose beads; immunoblot with rabbit polyclonal antibodies to HA, MYC or GFP

B1: HA-tagged CFAP53 (protein, UniProt Q9D439 1-514)
chain: MYSQQFGTVPREFKGPTPKAVIIRAKPPKAQRAEQHLKRIQRSYHKYHTTLASIKSNEENRLKCDWIQRNNHKTFDSLVQARVQDAMQGFVINTEERRNKLRELLASEENEYFSEMQLKGETIEEKKDKMRERTKLLREKKEKERQEFVAEKLDQQFRERCEELRTKLASIHEKKVVEERNAQIEFNKELKRQKLVEEHLFARLWEEDRLAKERREAQEEKRQRELVQNTRLGLDAQVTSIQAQRQGARRMKEEEARILEQNKAQIKREDEQEKLQKQKRRQETRSSLKKAVQDKIESMQREYREDLDLNMKLVGRALQDLQDEADKKKQKREEMGREQKIYNDYLMQRREEEKAQEKELNRLLEDIKAKKLAEKDRELALQRAARKQLMNEVMNTRKLQVQERLQRKLREQEELALHEQRISESLKVLHQEDMEDFARRCALAEEYRNQLQMQIAHQQQAREAEKEEERQEFEAGLAANKACLDKIQRILSENQALSQNVHPMRRGYPDKPPL
For B1, the binding was “no binding”.
